The record followed here is paper PMC4267653, “DNA cleavage by CgII and NgoAVII requires interaction between N- and R-proteins and extensive nucleotide hydrolysis” (Nucleic Acids Research, 2014).

Experiment in all cases: EMSA
On the technique in general: Mobility shift assays separate free from complexed probe on a gel.

For data set [1], the system named is N.CglI (Corynebacterium glutamicum ATCC 13032). Conditions: no metal, 0.1 mM EDTA, EMSA: 1 nM 33P-DNA, 1-500 nM protein monomer, 40 mM Tris-acetate pH 8.3 (25°C), 0.1 mM EDTA (NgoAVII: 5 mM Ca-acetate instead), 0.1 mg/ml BSA, 10% glycerol, 15 min, recombinant protein, label: 33P.
The test system of data set [2] is R.CglI (Corynebacterium glutamicum ATCC 13032). The conditions noted are these: no metal, 0.1 mM EDTA, little or no binding; EMSA: 1 nM 33P-DNA, 1-500 nM protein monomer, 40 mM Tris-acetate pH 8.3 (25°C), 0.1 mM EDTA (NgoAVII: 5 mM Ca-acetate instead), 0.1 mg/ml BSA, 10% glycerol, 15 min; recombinant protein; label: 33P.
Data set [3] has as its system R.CglI-B3 (Corynebacterium glutamicum ATCC 13032). Conditions: no metal, 0.1 mM EDTA; EMSA: 1 nM 33P-DNA, 1-500 nM protein monomer, 40 mM Tris-acetate pH 8.3 (25°C), 0.1 mM EDTA (NgoAVII: 5 mM Ca-acetate instead), 0.1 mg/ml BSA, 10% glycerol, 15 min; recombinant protein; label: 33P.

The exact form of at least one protein or probe is not confirmed. For some of these results: Negatives hold for the conditions tested. For some of these results: Weaker means in comparison with the reference protein, sequence or condition of that experiment. For some of these results: At least one verdict rests on a figure or table, not on a statement of the authors.

As to “TACAATCGATAATACCAGGCGTGCGAGCCCATT (double strand) [33 bp non-cognate duplex]”, the binding result in data set [1] (little or no binding) and in data set [2] was “binds more weakly” each time.

Take “TACAATCGATAATAGCCGCCGTGCGAGCCCATT (double strand) [33 bp cognate duplex]”: the binding result in data set [1] is reported as “no binding”; in data set [3] it was “binds”.
